{
  "source": "ChEMBL document CHEMBL4715839",
  "about": "“Structure-activity relationships for binding of 4-substituted triazole-phenols to macrophage migration inhibitory factor (MIF)” (Eur J Med Chem, 2020)",
  "key": {"[1]": {"substrate": "O=C(NCc1cn(-c2ccc(O)c(F)c2)nn1)c1cc2ccccc2[nH]1", "conditions": "Homo sapiens; dose 2.5 µM"}, "[2]": {"substrate": "O=C(NCc1cn(-c2ccc(O)c(F)c2)nn1)c1cc2ccccc2[nH]1", "conditions": "Homo sapiens; dose 1.0 µM"}},
  "data": [
    {"protein": "Macrophage migration inhibitory factor (Homo sapiens), P14174 (protein) MPMFIVNTNVPRASVPDGFLSELTQQLAQATGKPPQYIAVHVVPDQLMAFGGSSEPCALCSLHSIGKIGGAQNRSYSKLLCGLLAERLRISPDRVYINYYDMNAANVGWNNSTFA", "values": [
      {"measurement": "Km", "setting": "[1]", "value": 1950, "unit": "µM"},
      {"measurement": "Km", "setting": "[2]", "value": 1600, "unit": "µM"}
    ]}
  ]
}
